In PubChem BioAssay AID2685 (National Center for Advancing Translational Sciences (NCATS), 2010):
Some of the results follow. The main result of the screen is listed elsewhere. These columns were measured beside it and carry no call. The list favours compounds with an active or inconclusive main result. Potencies come from curve fits of mixed quality, noted in brackets.

Test: qHTS Assay for Lipid Storage Modulators in Drosophila S3 Cells;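 as to cell number change: cells counted by Cell Tracker Red CMTPX staining in the red channel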
Details: BODIPY lipid droplet fluorescence, 18-24 h; for cell number change: measured here: cell count max response, cells fed with added oleic acid
In short: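 Laser-scanning cytometry quantifies lipid droplet accumulation (500–530 nm total intensity; droplet/cell object ratio) in oleic acid-fed (400 uM added) Drosophila S3 cells treated with a concentration series. 20 uM Triacsin C defined 100% inhibition.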

[1] = measured here: lipid fluorescence (Fed channel) AC50, cells fed with added oleic acid
[2] = measured here: cell number channel AC50, cells fed with added oleic acid

Row | SMILES | cell number change [%] | AC50 [1] | AC50 [2]
1 | CCN(CC(=O)Nc1ccc(NC(C)=O)cc1)C(=O)c1ccc(COc2ccccc2)o1 | -17.7 | 4.11 µM [falling, partial curve] | 
2 | COC(=O)CC(NC(=O)c1ccc(C)cc1)c1ccccc1 (configuration not stated) | 33.1 |  | 29.1 µM [rising, single point]
3 | CCC(=O)Nc1ccc(-c2ccc(N3CCC(C)CC3)nn2)cc1 | -26.1 | 3.66 µM [rising, single point] | 
4 | CCCCn1c(N)c(N(CCOC)C(=O)c2ccc(N3CCCC3)c([N+](=O)[O-])c2)c(=O)[nH]c1=O | -17.8 |  | 0.13 µM [falling, full curve, poor fit]
5 | CSCCC(NS(=O)(=O)c1ccc2c(c1)OCCO2)C(=O)N(C)Cc1ccc(F)cc1 (configuration not stated) | 13.3 | 0.0184 µM [rising, single point] | 
6 | Cc1ccc(S(=O)(=O)NCCC2=CCCCC2)cc1 | 32.7 |  | 14.6 µM [rising, single point]
7 | CC(C)c1ccc(CN2CCN(C(=O)CCl)CC2)cc1 | 6.97 |  | 
8 | Nc1ncnc2c1nc(N1CCCCC1)n2[C@@H]1O[C@H](CO)[C@@H](O)[C@H]1O | 12 | 0.00411 µM [falling, full curve, poor fit] | 
9 | O=C(NNc1c2ccccc2nc2ccccc12)c1ccccc1Cl | -20.2 |  | 
10 | O=C(c1cc2cc(Br)ccc2oc1=O)N1CCCC1 | -79.4 | 0.206 µM [falling, full curve, poor fit] | 25.9 µM [falling, partial curve]
11 | COc1ccc(O)c(/C=N/NC(=S)NCCc2ccccc2)c1 | -4.05 |  | 
12 | Cc1nn(CC(=O)O)c(C)c1NC(=O)c1cccs1 | 18.3 |  | 
13 | O=C(c1ccc(S(=O)(=O)N2CCCCC2)cc1)c1nnc(-c2ccc(Cl)cc2)o1 | -37.3 | 29.1 µM [falling, single point] | 0.731 µM [falling, full curve]
14 | CCOC(=O)/C=C/C(=O)OCC(=O)Nc1cccc(Cl)c1Cl | -24.3 |  | 0.00461 µM [rising, full curve, poor fit]
15 | Clc1ccc(-n2nnnc2-c2cnc(-c3ccccn3)nc2-c2cccs2)cc1 | -25.9 |  | 
16 | CN(C)c1nc(SCCOC(=O)COc2ccc(Cl)cc2Cl)nc(N(C)C)n1 | 11.9 | 0.146 µM [falling, full curve, poor fit] | 0.164 µM [falling, full curve, poor fit]
17 | CN1C(=O)c2ccc(NC(=O)c3ccc(Cl)cc3Cl)cc2C1=O | -5.9 | 29.1 µM [falling, single point] | 

Row | SMILES | cell number change [%] | AC50 [1] | AC50 [2]
18 | Cc1ccc(S(=O)(=O)Nc2ccc3c(c2)nc2n3CCN(Cc3ccccc3)C2)cc1 | 17.6 | 1.03 µM [rising, single point] | 1.16 µM [rising, partial curve, poor fit]
19 | COc1ccc(C2C(C#N)=C(N)N(c3sc4c(c3C#N)CCCC4)C3=C2C(=O)CC(C)(C)C3)cc1OC (configuration not stated) | 8.59 | 1.84 µM [rising, partial curve] | 
20 | C=CCSc1nnc2n(CCc3ccccc3)c(=O)c3c4c(sc3n12)COC(C)(C)C4 |  |  | 0.517 µM [rising, full curve]
21 | COc1cc(C(=O)O/N=C2/C=CC(=O)C(C)=C2C)cc(OC)c1OC | -30 |  | 0.00184 µM [falling, full curve, poor fit]
22 | CC(=O)N1c2ccc(S(=O)(=O)N(C)Cc3ccco3)cc2CC1C (configuration not stated) | 16.4 | 29.1 µM [rising, single point] | 
23 | COc1ccc2c(C)cc(SC3CCOC3=O)nc2c1 (configuration not stated) | 55.7 |  | 25.9 µM [rising, single point]
24 | CCN(CC)c1ccc(C(=O)N/N=C(\C)c2cccc(OC)c2)cc1 | 12.6 | 2.31 µM [rising, partial curve, poor fit] | 
25 | COc1cc(C(=O)O)ccc1O | -30.2 |  | 0.116 µM [falling, full curve, poor fit]
26 | FC(F)(F)c1cccc(N2CCN(Cc3cccnc3)CC2)c1 |  | 0.731 µM [rising, single point] | 
27 | CCC(C)[C@H](NC(=O)N1CC(=O)Nc2ccccc21)C(=O)N1CCC[C@H]1C(=O)O (some centres not stated) | 46.9 | 4.61 µM [rising, partial curve, poor fit] | 32.6 µM [rising, partial curve, poor fit]
28 | Cc1snc(SCc2cccc(Cl)c2)c1C#N | 9.09 | 6.51 µM [rising, partial curve, poor fit] | 
29 | O=C(Nc1ccccc1Oc1ccccc1)c1ccccc1F | -1.09 |  | 0.731 µM [rising, single point]
30 | NS(=O)(=O)c1ccc(Nc2nc(-c3ccc(O)cc3O)cs2)cc1 | 112 |  | 2.06 µM [rising, full curve, poor fit]
31 | CCCCn1c(N)c(N(C)C(=O)c2ccc(OCC3CCCO3)cc2)c(=O)[nH]c1=O (configuration not stated) | -2.36 |  | 
32 | CCC(=O)Nc1nc(C)c(C(=O)Nc2cccc(Cl)c2)s1 | 17.2 | 16.4 µM [falling, single point] | 
33 | COc1ccc(OCC(O)Cn2c(=N)n(Cc3ccccc3)c3ccccc32)cc1 (configuration not stated) |  |  | 5.8 µM [falling, partial curve]

Arranged by heavy-atom count (low to high): 3 of the compounds above.
Row | SMILES | cell number change [%] | AC50 [1] | AC50 [2]
29 | O=C(Nc1ccccc1Oc1ccccc1)c1ccccc1F | -1.09 |  | 0.731 µM [rising, single point]
30 | NS(=O)(=O)c1ccc(Nc2nc(-c3ccc(O)cc3O)cs2)cc1 | 112 |  | 2.06 µM [rising, full curve, poor fit]
18 | Cc1ccc(S(=O)(=O)Nc2ccc3c(c2)nc2n3CCN(Cc3ccccc3)C2)cc1 | 17.6 | 1.03 µM [rising, single point] | 1.16 µM [rising, partial curve, poor fit]
